Patent US8653283B2, “Anticancer agents” (The Regents of The University of California, priority 2009, dated 2014)

Tested on: HCT-116 cells
Experiment: Cellular uptake and subcellular localization by fluorescence microscopy
Type: cell-based, human
Conditions: 10 μM
Description: HCT-116 cells (ATCC CCL-247) were cultured in Dulbecco's modification of Eagle's medium (DMEM) with 4.5 g L^−1 glucose, […], and 5% heat inactivated fetal calf serum (FCS) in glass-bottom dishes. Fluorescent images were collected on a Leica (Wetzlar, Germany) DMI6000 inverted confocal microscope with a Yokogawa (Tokyo, Japan) spinning disk confocal head, Orca ER High Resolution B&W Cooled CCD camera (6.45 μm/pixel at 1×) (Hamamatsu, Sewickley, Pa.), Plan Apochromat 40×/1.25 na and 63×/1.4 na objective, and a Melles Griot (Carlsbad, Calif.) Argon/Krypton 100 mW air-cooled laser for 488, 568, and 647 nm excitations. Confocal z-stacks were acquired in all experiments. Co-staining was conducted by treating cells exposed to 1 to either Syto 60 (nucleus), LysoTracker Red DND-99 (lysosomes), BODIPY TR glibenclamide (endoplasmic reticulum), or MitoTracker Red 580 (mitochondria) for 20 min and washing the cells three times with media and collecting images in two colors.
Cellular uptake and localization of 1 in HCT-116 tumor cells was then evaluated using fluorescence microscopy. Fortunately, spirohexenolide A (1) was natively fluorescent, with an excitation maximum λmax=435 nm and emission maximum at λmax=466 nm (FIGS. 14 and 15). HCT-116 cells were treated with 10 μM 1 in DMEM containing 10% FCS, 100 U/mL penicillin-G, and 100 μg/mL streptomycin and analyzed by fluorescence microscopy. […] Within 6-12 h, fluorescence from 1 concentrated within vesicles surrounding the nucleus and remained in these structures (FIG. 4b). This staining could not be washed from the cells by repetitive incubation with media and remained consistent thereafter (FIG. 4c).
HCT-116 cells (ATCC CCL-247) were cultured in Dulbecco's modification of Eagle's medium (DMEM) with 4.5 g L^−1 glucose, 4.5 g L^−1 L-glutamine and 5% heat inactivated fetal calf serum (FCS) in glass-bottom dishes. […] Image in FIG. 7c was collected with fluorescence from DNA by staining with SYTO-60 (excitation at 647 nm and emission at 692±40 nm), actin with FITC-phalloidin (excitation at 488 nm and emission at 524±40 nm), and microtubules with BODIPY 564/570 paclitaxel (excitation at 568 nm and emission at 593±40 nm).
The cellular uptake of localization of 1 in HCT-116 tumor cells was then evaluated using fluorescence microscopy. […] HCT-116 cells were treated with 10 μM 1 in DMEM containing 10% FCS, 100 U/mL penicillin-G and 100 μg/mL streptomycin and analyzed by fluorescence microscopy. […]
The uptake and subcellular localization of probes 3 and 4 to spirohexenolide A (1) in HCT-116 cells were then compared. […] HCT-116 cells were treated with 10 μM 1 in DMEM containing 10% FCS, 100 U/mL penicillin-G, and 100 μg/mL streptomycin and analyzed by fluorescence microscopy. […]

spirohexenolide A
cellular uptake: readily uptaken
subcellular localization (listed as 1): localization occurred in the lysosomes
subcellular localization (listed as compound 1): localizes within the lysosomes
subcellular localization (listed as spirohexenolide A (1)): localized with punctuate distribution in a subcellular organelle between the Golgi apparatus and the nucleus
